Laboratory results taken from PMC10875230.
No constants are given. Whether binding was seen depends on the method and setting. In cells and extracts the contact can be indirect. Some binding calls cover weakened binding; strength is not graded here.

By UniProt entry, the sequences of proteins in these tests, tags left out. Where a name states a change or a piece, a line headed by the entry shows the natural chain unless it says otherwise.
UniProt Q7TQK4: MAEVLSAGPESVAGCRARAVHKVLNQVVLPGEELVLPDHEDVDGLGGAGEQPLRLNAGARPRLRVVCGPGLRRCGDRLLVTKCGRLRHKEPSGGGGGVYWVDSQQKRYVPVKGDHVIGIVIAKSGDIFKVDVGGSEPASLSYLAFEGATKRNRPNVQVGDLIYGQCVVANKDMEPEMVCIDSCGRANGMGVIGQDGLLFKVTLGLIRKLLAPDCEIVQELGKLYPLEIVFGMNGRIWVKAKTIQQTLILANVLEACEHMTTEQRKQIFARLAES
UniProt Q9JHI7: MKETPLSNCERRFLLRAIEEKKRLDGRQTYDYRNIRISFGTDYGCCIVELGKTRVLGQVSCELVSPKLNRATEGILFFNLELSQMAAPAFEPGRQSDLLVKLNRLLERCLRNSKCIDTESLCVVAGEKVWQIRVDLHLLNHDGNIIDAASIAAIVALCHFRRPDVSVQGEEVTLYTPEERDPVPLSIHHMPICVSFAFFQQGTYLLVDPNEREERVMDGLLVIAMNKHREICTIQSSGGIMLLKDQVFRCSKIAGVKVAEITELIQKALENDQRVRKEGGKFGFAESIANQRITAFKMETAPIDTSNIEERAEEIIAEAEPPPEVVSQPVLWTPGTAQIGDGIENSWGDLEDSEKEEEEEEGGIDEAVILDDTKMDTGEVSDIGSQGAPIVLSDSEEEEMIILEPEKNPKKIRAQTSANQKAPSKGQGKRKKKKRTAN

Legend:
[1] = target: EXOSC3 (endogenous) (mouse (endogenous in N2A)) (UniProt Q7TQK4); assay: co-IP; endogenous EXOSC3 precipitated with rabbit polyclonal EXOSC3 antibody on Protein G beads from the cytoplasmic fraction of N2A cells (50 mM Tris-HCl pH 7.4, 100 mM NaCl, 0.5% IGEPAL CA-630; 4 °C overnight); immunoblot
[2] = target: myc-EXOSC3 (UniProt Q7TQK4); assay: co-IP; myc-EXOSC3 precipitated with anti-myc magnetic beads from lysate of transfected N2A cells (20 mM Hepes pH 7.2, 100 mM NaCl, 0.2% Triton X-100; 1 h, room temperature); immunoblot
[3] = target: EXOSC3 (endogenous) (mouse (endogenous in N2A)) (UniProt Q7TQK4); assay: co-IP; endogenous EXOSC3 precipitated with rabbit polyclonal EXOSC3 antibody on Protein G beads from the nuclear fraction of N2A cells (50 mM Tris-HCl pH 7.4, 100 mM NaCl, 0.5% IGEPAL CA-630; 4 °C overnight); immunoblot; also with RNase A, other RNases or DNase I added to the lysate, and after treatment of the cells with camptothecin or bleomycin

binding [1]: binds
binding [2]: binds
binding [3]: binds
Substance: EXOSC9 (from UniProt Q9JHI7 1-438)
